Laboratory results reported in the supplement of paper PMC4604168 (melanoma cell lines).
Some of the results follow. Single values are uncertain, as repeats are few or missing.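 Imaging used 1,536-well plates; nuclei positive for cleaved PARP by antibody were divided by total DNA-stained nuclei to yield the apoptosis fraction. Doses for screening kept most cells viable, and cell lines differ markedly in resting and induced cleaved-PARP levels.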

Tests used:
Assay in all cases: cleaved PARP positive nuclei fraction relative to DMSO control; melanoma cells; higher = more apoptosis
Details in all cases: library dose: low library concentration; 72 h
[1] = system: MZ2-MEL
[2] = system: MeWo
[3] = system: RPMI7951
[4] = system: RVH-421
[5] = system: SkMel28
[6] = system: SkMel2
[7] = system: SkMel30
[8] = system: SkMel5
[9] = system: UACC257
[10] = system: UACC62
[11] = system: WM115
[12] = system: WM1716
[13] = system: WM1745
[14] = system: WM3526
[15] = system: WM3619
[16] = system: WM451Lu

| SMILES | cleaved PARP positive nuclei fraction [1] [%] | cleaved PARP positive nuclei fraction [2] [%] | cleaved PARP positive nuclei fraction [3] [%] | cleaved PARP positive nuclei fraction [4] [%] | cleaved PARP positive nuclei fraction [5] [%] | cleaved PARP positive nuclei fraction [6] [%] | cleaved PARP positive nuclei fraction [7] [%] | cleaved PARP positive nuclei fraction [8] [%] | cleaved PARP positive nuclei fraction [9] [%] | cleaved PARP positive nuclei fraction [10] [%] | cleaved PARP positive nuclei fraction [11] [%] | cleaved PARP positive nuclei fraction [12] [%] | cleaved PARP positive nuclei fraction [13] [%] | cleaved PARP positive nuclei fraction [14] [%] | cleaved PARP positive nuclei fraction [15] [%] | cleaved PARP positive nuclei fraction [16] [%] |
| --- | --- | --- | --- | --- | --- | --- | --- | --- | --- | --- | --- | --- | --- | --- | --- | --- |
| CC(C)C[C@H](NC(=O)[C@H](Cc1ccccc1)NC(=O)c1cnccn1)B(O)O [Bortezomib] + COc1cc(N2CCC(N3CCN(C)CC3)CC2)ccc1Nc1ncc(Cl)c(Nc2ccccc2S(=O)(=O)C(C)C)n1 [NVP-TAE684] (first compound 0.001 µM, partner dose 0.08 µM) | 135 | 68.2 | 99.7 | 333 | 131 | 93.8 | 642 | 247 | 17.1 | 101 | 116 | 360 | 141 | 118 | 1630 | 93 |
| CCCS(=O)(=O)Nc1ccc(F)c(C(=O)c2c[nH]c3ncc(Cl)cc23)c1F + CN(C)S(=O)(=O)c1ccc2c(c1)/C(=C/c1cc3c([nH]1)CCCC3)C(=O)N2 [SU6656] (first compound 0.08 µM, partner dose 0.4 µM) | 224 | 65.7 | 90.3 | 88.1 | 62.1 | 143 | 295 | 171 | 96.3 | 90.7 | 231 | 63.5 | 114 | 84.9 | 84.9 | 269 |
| CS(=O)(=O)CCNCc1ccc(-c2ccc3ncnc(Nc4ccc(OCc5cccc(F)c5)c(Cl)c4)c3c2)o1 [lapatinib] + Cn1cc(/C=C2\C(=O)Nc3cccnc32)c2ccccc21 [GW441756] (first compound 0.8 µM, partner dose 0.4 µM) | 234 | 122 | 74 | 132 | 138 | 32.2 | 57.2 | 104 | 298 | 86.2 | 107 | 25.4 | 86 | 23.2 | 74.6 | 109 |
| CC(C)C[C@H](NC(=O)[C@H](Cc1ccccc1)NC(=O)c1cnccn1)B(O)O [Bortezomib] + Oc1cc(-c2nc(-c3ccccc3)[nH]c2-c2ccncc2)ccc1Cl [L779450] (first compound 0.001 µM, partner dose 0.2 µM) | 101 | 93.1 | 120 | 138 | 346 | 75.5 | 171 | 120 | 118 | 247 | 95.1 | 462 | 264 | 48.6 | 477 | 53.4 |
| C[C@@H](Oc1cc(-c2cnn(C3CCNCC3)c2)cnc1N)c1c(Cl)ccc(F)c1Cl [Crizotinib] + C[C@@H]1CCN(C(=O)CC#N)C[C@@H]1N(C)c1ncnc2[nH]ccc12 [CP690550] (first compound 0.2 µM, partner dose 1 µM) | 38.8 | 185 | 46.7 | 124 | 53.8 | 141 | 56.3 | 75.9 | 44.9 | 140 | 39.4 | 43.3 | 91.7 | 58.2 | 81 | 56.6 |
| CNC(=O)c1cc(Oc2ccc(NC(=O)Nc3ccc(Cl)c(C(F)(F)F)c3)cc2)ccn1 [sorafenib] + O=c1cc(-c2cccc3c2Sc2ccccc2S3)oc(N2CCOCC2)c1 [KU55933] (first compound 0.4 µM, partner dose 1 µM) | 158 | 158 | 76.1 | 73 | 186 | 97.2 | 80 | 84.6 | 126 | 166 | 90.6 | 62.5 | 90.7 | 87.5 | 96.3 | 76.7 |
| O=C(O)[C@@H]1[O][Sb](=[O])([O][Sb]2(=[O])[O][C@H]([C@H](O)CO)[C@H](O)[C@H](C(=O)O)[O]2)[O][C@H]([C@H](O)CO)[C@@H]1O (some centres not stated) [stibogluconate] + COc1ccc(COc2ccc(Cc3cnc(N)nc3N)cc2OC)cc1 [GW2580] (first compound 2 µM, partner dose 1 µM) | 145 | 25.9 | 30.7 | 153 | 105 | 95 | 33.7 | 70.1 | 229 | 86.4 | 70.8 | 167 | 91.6 | 57.2 | 80.2 | 32.5 |
| O=C(O)[C@@H]1[O][Sb](=[O])([O][Sb]2(=[O])[O][C@H]([C@H](O)CO)[C@H](O)[C@H](C(=O)O)[O]2)[O][C@H]([C@H](O)CO)[C@@H]1O (some centres not stated) [stibogluconate] + COc1cc2c(Oc3ccc4[nH]c(C)cc4c3F)ncnc2cc1OCCCN1CCCC1 [cediranib] (first compound 2 µM, partner dose 0.4 µM) | 49.6 | 49.6 | 172 | 76.2 | 92.1 | 134 | 64 | 37.9 | 255 | 62.8 | 95.2 | 140 | 101 | 55.6 | 77 | 97.3 |
| C[C@@H](Oc1cc(-c2cnn(C3CCNCC3)c2)cnc1N)c1c(Cl)ccc(F)c1Cl [Crizotinib] + O=C(O)C(=O)Nc1sc2c(c1C(=O)O)CCNC2 [TCS401] (first compound 0.2 µM, partner dose 1.66667 µM) | 217 | 63 | 101 | 85.8 | 172 | 155 | 30.7 | 83.7 | 42.8 | 102 | 110 | 62.4 | 101 | 85.7 | 78 | 33.3 |
| C=C(c1ccc(C(=O)O)cc1)c1cc2c(cc1C)C(C)(C)CCC2(C)C [Bexarotene] + C=CCn1c(=O)c2cnc(Nc3ccc(N4CCN(C)CC4)cc3)nc2n1-c1cccc(C(C)(C)O)n1 [MK1775] (first compound 2 µM, partner dose 0.02 µM) | 19.6 | 107 | 128 | 87 | 160 | 36.2 | 62.3 | 71.3 | 87.8 | 154 | 132 | 112 | 98.6 | 110 | 198 | 124 |
| Cc1cc(Nc2cc(N3CCN(C)CC3)nc(/C=C/c3ccccc3)n2)n[nH]1 + O=c1cc(-c2cccc3c2Sc2ccccc2S3)oc(N2CCOCC2)c1 [KU55933] (first compound 0.04 µM, partner dose 1 µM) | 109 | 90 | 93.1 | 103 | 115 | 56.6 | 187 | 71.7 | 55.9 | 120 | 77 | 48.6 | 88.3 | 71.8 | 90.6 | 139 |
| CNC(=O)c1cc(Oc2ccc(NC(=O)Nc3ccc(Cl)c(C(F)(F)F)c3)cc2)ccn1 [sorafenib] + NC(=O)Nc1cc(-c2cccc(F)c2)sc1C(=O)N[C@H]1CCCNC1 [AZD7762] (first compound 0.4 µM, partner dose 0.02 µM) | 180 | 103 | 209 | 85 | 52.1 | 101 | 140 | 41.6 | 189 | 80.5 | 169 | 210 | 101 | 62.1 | 109 | 136 |
| O=C(O)[C@@H]1[O][Sb](=[O])([O][Sb]2(=[O])[O][C@H]([C@H](O)CO)[C@H](O)[C@H](C(=O)O)[O]2)[O][C@H]([C@H](O)CO)[C@@H]1O (some centres not stated) [stibogluconate] + O=c1cc(-c2cccc3c2Sc2ccccc2S3)oc(N2CCOCC2)c1 [KU55933] (first compound 2 µM, partner dose 1 µM) | 160 | 63.4 | 30.1 | 17.4 | 52 | 127 | 78.8 | 83.3 | 126 | 91.2 | 257 | 59.9 | 91.3 | 81.8 | 111 | 62.4 |
| Nc1ncn([C@H]2C[C@H](O)[C@@H](CO)O2)c(=O)n1 [decitabine] + C=CCn1c(=O)c2cnc(Nc3ccc(N4CCN(C)CC4)cc3)nc2n1-c1cccc(C(C)(C)O)n1 [MK1775] (first compound 0.1 µM, partner dose 0.02 µM) | 56.4 | 55.6 | 273 | 96 | 72.5 | 79.7 | 65.5 | 75.6 | 41.2 | 104 | 56.1 | 143 | 98.9 | 60.8 | 124 | 70.3 |
| CNC(=O)c1cc(Oc2ccc(NC(=O)Nc3ccc(Cl)c(C(F)(F)F)c3)cc2)ccn1 [sorafenib] + CCN(CC)CCCCNc1ncc2cc(-c3cc(OC)cc(OC)c3)c(NC(=O)NC(C)(C)C)nc2n1 [PD173074] (first compound 0.4 µM, partner dose 0.1 µM) | 128 | 36.3 | 107 | 215 | 64.8 | 58.6 | 254 | 81.8 | 40.4 | 93.7 | 69.9 | 118 | 87.6 | 67.6 | 105 | 39.6 |
| Cc1cc(Nc2cc(N3CCN(C)CC3)nc(/C=C/c3ccccc3)n2)n[nH]1 + COc1ccc2c(c1)CCC1C2CCC2(C)C(NCCCCCCN3C(=O)C=CC3=O)CCC12 [U73122] (first compound 0.04 µM, partner dose 0.4 µM) | 164 | 186 | 266 | 144 | 221 | 182 | 49.2 | 93.1 | 67.5 | 405 | 56.3 | 240 | 81.2 | 83.3 | 119 | 78.8 |
| C[C@@H](Oc1cc(-c2cnn(C3CCNCC3)c2)cnc1N)c1c(Cl)ccc(F)c1Cl [Crizotinib] + CO[C@@H]1[C@H](N(C)C(=O)c2ccccc2)C[C@H]2O[C@]1(C)n1c3ccccc3c3c4c(c5c6ccccc6n2c5c31)C(=O)NC4 [Midostaurin] (first compound 0.2 µM, partner dose 0.08 µM) | 89.4 | 157 | 79.1 | 46.5 | 171 | 132 | 116 | 71.5 | 107 | 59.9 | 116 | 142 | 111 | 62.7 | 217 | 49.7 |

Some values from the results shown.
Under cleaved PARP positive nuclei fraction [5] [%], O=C(O)[C@@H]1[O][Sb](=[O])([O][Sb]2(=[O])[O][C@H]([C@H](O)CO)[C@H](O)[C@H](C(=O)O)[O]2)[O][C@H]([C@H](O)CO)[C@@H]1O (some centres not stated) [stibogluconate] + O=c1cc(-c2cccc3c2Sc2ccccc2S3)oc(N2CCOCC2)c1 [KU55933] (first compound 2 µM, partner dose 1 µM) has the entry 52
Under cleaved PARP positive nuclei fraction [14] [%], C[C@@H](Oc1cc(-c2cnn(C3CCNCC3)c2)cnc1N)c1c(Cl)ccc(F)c1Cl [Crizotinib] + CO[C@@H]1[C@H](N(C)C(=O)c2ccccc2)C[C@H]2O[C@]1(C)n1c3ccccc3c3c4c(c5c6ccccc6n2c5c31)C(=O)NC4 [Midostaurin] (first compound 0.2 µM, partner dose 0.08 µM) has the entry 62.7
